# Measured values from PubChem BioAssay AID602313 (National Center for Advancing Translational Sciences (NCATS), 2012).
# Among all 390,000 compounds or so, about 760 (0.19%) were called active. Inconclusive means that the source gave no clear call. Such entries were picked first, then a sample of the others. Calls follow the shape of the dose curve; as a rule, active = well fitted inhibition curve with a large enough effect; inconclusive = small, poorly fitted or top-dose-only effect; inactive = flat fitted curve, though single readings scatter. A potency beside an inconclusive call is a rough fit, not a confirmed value.
# Assay: qHTS for Inhibitors of Vif-A3F Interactions: qHTS; also: nearly all actives have a fitted effect of over 65% in size
# Details: HeLa A3F-eYFP + Vif (tagged APOBEC3F with the HIV-1 protein that degrades it), YFP fluorescence increase; series mostly up to 46.1 µM
# How it was run: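 HeLa cells stably expressing A3F-eYFP plus Vif, plated and incubated overnight at 37 deg C, then exposed to compounds overnight at 37 deg C. Blocked degradation read as raised yellow fluorescence (Ex 488/Em 500-530).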
# Potency is read from the fitted curve at half-maximal effect.
row,SMILES,Potency
1,CCn1ccnc1CN1CCCC(C(=O)c2cccc(C(F)(F)F)c2)C1 (stereo unspecified),"inconclusive: 25.1 µM [inhibitor, single point]"
2,N#CC(=C(O)c1ccc(S(=O)(=O)N(CCCl)CCCl)cc1)c1nc2ccccc2[nH]1,"inconclusive: 5.62 µM [inhibitor, single point]"
3,CC12CC[C@H]3[C@@H](CCC4(O)C[C@H](O)CCC34/C=N/NC(=O)c3ccccc3F)C1(O)CCC2C1=CC(=O)OC1 (stereo partly specified),"inconclusive: 35.5 µM [inhibitor, single point]"
4,CC(=O)OC1CC2(O)C3CCC4CC(O)CCC4(C)C3CCC2(C)C1C1=CC(=O)OC1 (stereo unspecified),"inconclusive: 15.8 µM [inhibitor, partial curve, poor fit]"
5,CCCCCCCCn1sccc1=O,"inconclusive: 3.16 µM [inhibitor, single point]"
6,CCOc1ccccc1CN1CCCC(C(=O)c2cc(F)ccc2F)C1 (stereo unspecified),"inconclusive: 35.5 µM [inhibitor, single point]"
7,COc1cccc2c1cc([N+](=O)[O-])c1c(C(=O)O)cc3c(c12)OCO3,"inconclusive: 7.94 µM [inhibitor, partial curve, poor fit]"
8,COc1ccc(N2C(=O)/C(=C/c3ccc(OC)c(OC)c3)C(=O)NC2=S)cc1,inactive
9,CCN(CCNc1ccc([N+](=O)[O-])c2cccnc12)S(=O)(=O)c1ccc(Cl)cc1,inactive
10,CCOC(=O)C1(c2ccccc2)CCN(CCC(=O)Nc2ccccc2OC)CC1,inactive
11,CCCCCCn1c(O)c(C=Nc2ccccc2N2CCOCC2)c(=O)[nH]c1=S,"inconclusive: 7.08 µM [inhibitor, partial curve, poor fit]"
12,CC(C)c1ccc(N2C(=O)NC(=O)/C(=C/C=C/c3ccco3)C2=O)cc1,"inconclusive: 15.8 µM [inhibitor, partial curve, poor fit]"
13,N#Cc1ccc(NC(=O)CN2CCCCCC2)cc1Cl,"inconclusive: 35.5 µM [inhibitor, single point]"
14,CCC(C)N1C(=O)/C(=C\c2cc3c4c(c2)CCCN4CCC3)C(=O)NC1=S (stereo unspecified),inactive
15,O=C(N/N=C/c1c(O)n(-c2cccc3ccccc23)c(=O)[nH]c1=O)c1ccncc1,"inconclusive: 35.5 µM [inhibitor, single point]"
16,O=C1NC(=O)N(Cc2ccc(F)cc2)C(=O)/C1=C\C=C\c1ccco1,active: 10 µM
17,O=C1NC(=O)N(c2cccc(Br)c2)C(=O)/C1=C/c1ccsc1,"inconclusive: 35.5 µM [inhibitor, partial curve, poor fit]"
18,CCCCn1c(O)c(/C=C/C=Nc2ccccc2)c(=O)[nH]c1=O,"inconclusive: 25.1 µM [inhibitor, partial curve, poor fit]"
19,COc1ccc(/C=C/C(=O)c2c(O)n(CCC3=CCCCC3)c(=O)[nH]c2=O)cc1,inactive
20,O=C1CN=C(c2ccccc2)c2ccccc2N1,inactive
21,O=C1NC(=S)NC(=O)C1=Cc1ccc(Br)s1,"inconclusive: 5.62 µM [inhibitor, single point]"

row,SMILES,Potency
1,COc1ccc(N2C(=O)CS(=O)C(c3ccccc3)C2=O)cc1 (stereo unspecified),"inconclusive: 31.6 µM [inhibitor, partial curve, poor fit]"
2,C#CCN1C(=O)S/C(=C\c2ccc(N3CCOCC3)cc2C)C1=O,"inconclusive: 35.5 µM [inhibitor, single point]"
3,CCC(=O)C1=C(c2cccc([N+](=O)[O-])c2)N(C(=O)CC)n2c(nnc2C2CCCCC2)S1,"inconclusive: 35.5 µM [inhibitor, single point]"
4,COc1ccc2[nH]c(C)c(CCNCc3cc(OC)c(OC)c(OC)c3)c2c1,"inconclusive: 2 µM [inhibitor, partial curve, poor fit]"
5,O=C1NC(=O)C(=Cc2ccc(SC3CCCCC3)o2)C(=O)N1,"inconclusive: 6.31 µM [inhibitor, single point]"
6,COc1ccc(CN2C(=O)NC(=O)/C(=C/c3ccoc3)C2=O)cc1,"inconclusive: 35.5 µM [inhibitor, single point]"
7,COC(=O)c1cn(S(=O)(=O)c2ccccc2)c2ccccc12,"inconclusive: 8.91 µM [inhibitor, partial curve, poor fit]"
8,CCC(C)N=Cc1c(O)n(-c2ccccc2)c(=O)[nH]c1=O (stereo unspecified),inactive
9,O=C(NCc1ccccc1)c1cccc(Nc2nc3ccccc3n3nnnc23)c1,"inconclusive: 17.8 µM [inhibitor, single point]"
10,COc1ccc(N2C(=O)/C(=C/c3ccc(N(C)C)o3)C(=O)NC2=S)cc1,"inconclusive: 7.94 µM [inhibitor, partial curve, poor fit]"
11,Nc1c(C(=O)NCc2ccco2)c2nc3ccccc3nc2n1Cc1ccccc1,"inconclusive: 15.8 µM [inhibitor, single point]"
12,COc1cc(/C=C2\C(=O)NC(=O)N(CCc3ccc(F)cc3)C2=O)ccc1O,"inconclusive: 35.5 µM [inhibitor, single point]"
13,COc1ccc(C(=O)C2CCCN(C3CSCCSC3)C2)c(C)c1 (stereo unspecified),"inconclusive: 3.55 µM [inhibitor, single point]"
14,O=C(/C=C/c1ccc2c(c1)OCO2)c1c(O)n(CCc2ccccc2)c(=O)[nH]c1=O,"inconclusive: 15.8 µM [inhibitor, partial curve, poor fit]"
15,COc1ccc(NC(=O)CSc2nc(-c3cccs3)cc(C(F)(F)F)n2)cc1Cl,"inconclusive: 11.2 µM [inhibitor, partial curve]"
16,CC(C)(Cl)[N+](=O)[O-],inactive
17,O=c1oc2ccccc2c(O)c1C(c1ccc([N+](=O)[O-])cc1)c1c(O)c2ccccc2oc1=O,inactive
18,O=c1cc(C(F)(F)F)c2cc3c4c(c2o1)CCCN4CCC3,"inconclusive: 4.47 µM [inhibitor, partial curve, poor fit]"
19,COC(=O)CSC1=NP(=S)(SCC(=O)OC)N2CCCC2=C1C#N (stereo unspecified),inactive
20,COc1ccc(S(=O)(=O)Nc2ccccc2OC)cc1N=Nc1c(O)[nH]c(=S)[nH]c1=O,"inconclusive: 11.2 µM [inhibitor, partial curve, poor fit]"

# In the list so far, two have bromine:
row,SMILES,Potency
17,O=C1NC(=O)N(c2cccc(Br)c2)C(=O)/C1=C/c1ccsc1,"inconclusive: 35.5 µM [inhibitor, partial curve, poor fit]"
21,O=C1NC(=S)NC(=O)C1=Cc1ccc(Br)s1,"inconclusive: 5.62 µM [inhibitor, single point]"
